Source: paper PMC8583962
Residue numbers refer to the chain shown, from its start. Results are given in words; binding and its absence hold for the method and conditions named. Binding seen in cells or lysates may run through a third protein. These calls come from enrichment with a bait or labelling near it, and not all partners need be listed. A no says only that the protein was not detected with the bait. For some of these results: Tags and fused reporters may be left off the sequences shown.

By UniProt entry, the sequences of proteins in these tests, tags left out.
UniProt Q9NWT6: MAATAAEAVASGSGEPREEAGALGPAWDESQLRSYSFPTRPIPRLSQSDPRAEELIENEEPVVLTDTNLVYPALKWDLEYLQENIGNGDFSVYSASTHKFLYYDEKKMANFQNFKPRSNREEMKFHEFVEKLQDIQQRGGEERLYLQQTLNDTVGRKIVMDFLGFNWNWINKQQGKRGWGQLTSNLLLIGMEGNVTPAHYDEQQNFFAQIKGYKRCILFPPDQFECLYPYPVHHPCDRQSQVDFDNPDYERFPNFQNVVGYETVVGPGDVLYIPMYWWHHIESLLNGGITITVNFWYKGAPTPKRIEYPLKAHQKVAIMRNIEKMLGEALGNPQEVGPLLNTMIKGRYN

Columns and labels:
Assay in all cases: affinity purification with mass spectrometry; IP of NAA10-V5 or NAA15-V5 (anti-V5) or endogenous NAA15 from lysates of HEK293, HeLa or HAP1 cells on Dynabeads Protein G; IPH buffer (50 mM Tris-HCl pH 8.0, 150 mM NaCl, 5 mM EDTA, 0.5% NP-40), 4 °C, three washes; FASP or in-solution digestion; LC/MS, MaxQuant iBAQ
[1] = biological target: T1, NAA15 (endogenous) (human (endogenous in HEK293, HeLa, HAP1)) (UniProt Q9BXJ9)
T1 sequence: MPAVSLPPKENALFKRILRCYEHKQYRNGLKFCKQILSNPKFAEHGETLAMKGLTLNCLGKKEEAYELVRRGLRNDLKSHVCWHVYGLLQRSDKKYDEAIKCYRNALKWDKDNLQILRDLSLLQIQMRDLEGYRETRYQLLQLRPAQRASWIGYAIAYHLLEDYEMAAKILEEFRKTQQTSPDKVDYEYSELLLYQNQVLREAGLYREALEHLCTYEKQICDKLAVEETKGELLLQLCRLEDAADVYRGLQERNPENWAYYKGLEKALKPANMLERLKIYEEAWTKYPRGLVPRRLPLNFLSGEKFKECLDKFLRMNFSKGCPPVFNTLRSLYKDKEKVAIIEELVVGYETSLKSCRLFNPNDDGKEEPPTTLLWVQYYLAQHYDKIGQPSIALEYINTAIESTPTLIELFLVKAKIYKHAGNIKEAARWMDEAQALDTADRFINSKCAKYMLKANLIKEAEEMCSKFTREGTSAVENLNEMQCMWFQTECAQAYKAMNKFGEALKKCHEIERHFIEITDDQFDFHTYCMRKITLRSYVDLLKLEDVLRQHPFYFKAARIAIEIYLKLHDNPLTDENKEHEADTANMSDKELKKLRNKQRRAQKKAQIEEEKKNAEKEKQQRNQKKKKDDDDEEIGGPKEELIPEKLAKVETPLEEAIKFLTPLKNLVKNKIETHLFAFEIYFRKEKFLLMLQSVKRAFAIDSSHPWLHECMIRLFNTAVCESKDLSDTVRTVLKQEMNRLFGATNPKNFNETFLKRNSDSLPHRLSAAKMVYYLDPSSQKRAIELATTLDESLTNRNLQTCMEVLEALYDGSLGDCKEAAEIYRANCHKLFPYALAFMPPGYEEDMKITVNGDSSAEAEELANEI

NAA15-L814P-V5 (human) = biological target: T2, NAA15-L814P-V5 (human) (UniProt Q9BXJ9)
T2 sequence: T1 sequence with L814P

NAA15-T406Y-V5 (human) = biological target: T3, NAA15-T406Y-V5 (human) (UniProt Q9BXJ9)
T3 sequence: T1 sequence with T406Y

NAA15-V5 (human) = biological target: T4, NAA15-V5 (human) (UniProt Q9BXJ9)
T4 sequence: T1 sequence

Measured: binding

factor inhibiting HIF-1α (FIH) (from UniProt Q9NWT6 1-349) (enzyme)
no binding: all assays above
